Measurements published in PMC5491147.
These are yes or no findings as the source states them, for the method shown. In cells and extracts the contact can be indirect. Some results given as binding are weak or reduced against the parent protein; the word gives no strength. Sequences can lack the tags named with a protein. One block for each molecule: values may come before it.

Chains of the proteins cited; added tags and fusions are not shown.
UniProt P03372: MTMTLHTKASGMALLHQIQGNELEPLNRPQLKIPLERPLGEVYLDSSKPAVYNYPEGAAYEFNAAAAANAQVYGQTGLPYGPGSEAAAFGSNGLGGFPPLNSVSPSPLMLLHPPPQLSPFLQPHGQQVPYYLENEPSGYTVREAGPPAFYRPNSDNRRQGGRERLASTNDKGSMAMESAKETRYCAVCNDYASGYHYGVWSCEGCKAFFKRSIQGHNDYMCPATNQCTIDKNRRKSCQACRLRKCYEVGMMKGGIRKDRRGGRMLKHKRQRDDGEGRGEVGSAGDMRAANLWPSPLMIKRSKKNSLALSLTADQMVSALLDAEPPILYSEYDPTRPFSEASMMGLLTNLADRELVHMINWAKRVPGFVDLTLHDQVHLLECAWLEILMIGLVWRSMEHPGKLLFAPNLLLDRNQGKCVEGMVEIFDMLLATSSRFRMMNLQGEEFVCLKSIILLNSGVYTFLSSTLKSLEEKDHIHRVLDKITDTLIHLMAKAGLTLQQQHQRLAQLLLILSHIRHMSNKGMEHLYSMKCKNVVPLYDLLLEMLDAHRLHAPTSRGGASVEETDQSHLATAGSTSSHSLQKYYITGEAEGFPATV

Experiments:
[1] = target: T1, GST-sLZIP (small leucine zipper protein) (human) (UniProt O43889); assay: co-IP; MCF7 cells transfected with GST-sLZIP (2 μg), stimulated with 100 nM E2 for indicated time periods in charcoal stripped media; total cell lysates immunoprecipitated with IgG and anti-GST antibody; protein A/G PLUS agarose overnight at 4°C; Western blot
T1 sequence: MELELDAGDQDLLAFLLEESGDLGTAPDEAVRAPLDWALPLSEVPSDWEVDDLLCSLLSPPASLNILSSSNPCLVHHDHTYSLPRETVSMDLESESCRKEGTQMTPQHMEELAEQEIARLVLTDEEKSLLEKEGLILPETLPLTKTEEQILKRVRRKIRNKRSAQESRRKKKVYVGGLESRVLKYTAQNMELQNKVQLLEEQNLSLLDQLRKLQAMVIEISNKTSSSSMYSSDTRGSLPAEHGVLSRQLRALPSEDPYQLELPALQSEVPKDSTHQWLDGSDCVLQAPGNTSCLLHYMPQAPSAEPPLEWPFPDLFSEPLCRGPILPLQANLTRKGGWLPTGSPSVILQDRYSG

[2] = target: T1, GST-sLZIP (small leucine zipper protein) (human); assay: pull-down; MCF7 cells transfected with GST-mock and GST-sLZIP (2 μg), treated with 100 nM E2 for indicated time periods in charcoal stripped media; total cell lysates incubated overnight with glutathione Sepharose 4B beads at 4°C; Western blot with anti-ERα and anti-GST antibodies
[3] = target: estrogen receptor α (human (endogenous in MCF7)) (UniProt P03372); assay: co-IP; MCF7 cells transfected with GFP-sLZIP (2 μg), stimulated with 100 nM E2 for indicated time periods in charcoal stripped media; total cell lysates immunoprecipitated with IgG and anti-ERα antibody; protein A/G PLUS agarose overnight at 4°C; Western blot

binding [1]: binds
binding [2]: binds
Molecule: estrogen receptor α (from UniProt P03372 1-595)

binding [3]: binds
B1: GFP-sLZIP (small leucine zipper protein) (protein, UniProt O43889-3 1-354)
chain: T1 sequence
